# Test results taken from the supplement of paper PMC12819154, “High-throughput peptide-centric local stability assay extends protein–ligand identification to membrane proteins, tissues and bacteria” (Nature Structural & Molecular Biology, 2025).
# Protein sequences, listed by entry. Tags and fused reporters are not part of them. Lines headed by an entry give the natural chain unless they say otherwise; changes in a name come on top.
# UniProt Q9Y6P5: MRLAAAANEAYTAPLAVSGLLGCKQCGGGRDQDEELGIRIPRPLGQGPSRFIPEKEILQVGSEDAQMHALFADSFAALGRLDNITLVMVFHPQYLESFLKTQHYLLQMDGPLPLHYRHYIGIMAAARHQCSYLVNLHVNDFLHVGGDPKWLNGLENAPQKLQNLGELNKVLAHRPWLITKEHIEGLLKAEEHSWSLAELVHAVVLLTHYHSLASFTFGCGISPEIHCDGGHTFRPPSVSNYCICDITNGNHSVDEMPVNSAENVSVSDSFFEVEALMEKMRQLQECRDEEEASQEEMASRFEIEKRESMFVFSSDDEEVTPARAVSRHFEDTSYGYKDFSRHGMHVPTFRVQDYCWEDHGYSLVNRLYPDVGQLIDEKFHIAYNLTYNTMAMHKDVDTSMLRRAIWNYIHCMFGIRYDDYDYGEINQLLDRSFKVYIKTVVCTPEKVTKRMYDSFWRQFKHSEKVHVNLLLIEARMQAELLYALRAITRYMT
# UniProt Q9Y5Y2: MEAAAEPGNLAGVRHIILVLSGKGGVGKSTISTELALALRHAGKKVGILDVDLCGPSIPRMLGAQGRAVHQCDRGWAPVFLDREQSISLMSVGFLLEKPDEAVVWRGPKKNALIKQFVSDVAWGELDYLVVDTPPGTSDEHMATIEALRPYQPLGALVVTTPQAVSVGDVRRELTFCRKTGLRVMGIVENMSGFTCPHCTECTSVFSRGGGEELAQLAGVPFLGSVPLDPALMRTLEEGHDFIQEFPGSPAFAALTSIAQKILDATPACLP
# UniProt Q9Y575: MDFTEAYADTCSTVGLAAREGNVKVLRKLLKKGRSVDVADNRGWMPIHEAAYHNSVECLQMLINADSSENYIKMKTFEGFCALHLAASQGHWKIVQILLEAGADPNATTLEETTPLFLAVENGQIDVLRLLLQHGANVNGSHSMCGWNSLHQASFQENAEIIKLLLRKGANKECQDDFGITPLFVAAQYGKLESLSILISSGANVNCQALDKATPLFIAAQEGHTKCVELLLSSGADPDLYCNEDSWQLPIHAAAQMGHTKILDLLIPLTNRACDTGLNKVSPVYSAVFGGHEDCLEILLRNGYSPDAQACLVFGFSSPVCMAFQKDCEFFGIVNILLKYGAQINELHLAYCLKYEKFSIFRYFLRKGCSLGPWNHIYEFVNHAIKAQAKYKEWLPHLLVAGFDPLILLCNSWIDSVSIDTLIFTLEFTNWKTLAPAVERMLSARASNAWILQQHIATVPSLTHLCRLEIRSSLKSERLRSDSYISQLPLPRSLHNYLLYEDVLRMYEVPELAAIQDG
# UniProt Q9Y4B6: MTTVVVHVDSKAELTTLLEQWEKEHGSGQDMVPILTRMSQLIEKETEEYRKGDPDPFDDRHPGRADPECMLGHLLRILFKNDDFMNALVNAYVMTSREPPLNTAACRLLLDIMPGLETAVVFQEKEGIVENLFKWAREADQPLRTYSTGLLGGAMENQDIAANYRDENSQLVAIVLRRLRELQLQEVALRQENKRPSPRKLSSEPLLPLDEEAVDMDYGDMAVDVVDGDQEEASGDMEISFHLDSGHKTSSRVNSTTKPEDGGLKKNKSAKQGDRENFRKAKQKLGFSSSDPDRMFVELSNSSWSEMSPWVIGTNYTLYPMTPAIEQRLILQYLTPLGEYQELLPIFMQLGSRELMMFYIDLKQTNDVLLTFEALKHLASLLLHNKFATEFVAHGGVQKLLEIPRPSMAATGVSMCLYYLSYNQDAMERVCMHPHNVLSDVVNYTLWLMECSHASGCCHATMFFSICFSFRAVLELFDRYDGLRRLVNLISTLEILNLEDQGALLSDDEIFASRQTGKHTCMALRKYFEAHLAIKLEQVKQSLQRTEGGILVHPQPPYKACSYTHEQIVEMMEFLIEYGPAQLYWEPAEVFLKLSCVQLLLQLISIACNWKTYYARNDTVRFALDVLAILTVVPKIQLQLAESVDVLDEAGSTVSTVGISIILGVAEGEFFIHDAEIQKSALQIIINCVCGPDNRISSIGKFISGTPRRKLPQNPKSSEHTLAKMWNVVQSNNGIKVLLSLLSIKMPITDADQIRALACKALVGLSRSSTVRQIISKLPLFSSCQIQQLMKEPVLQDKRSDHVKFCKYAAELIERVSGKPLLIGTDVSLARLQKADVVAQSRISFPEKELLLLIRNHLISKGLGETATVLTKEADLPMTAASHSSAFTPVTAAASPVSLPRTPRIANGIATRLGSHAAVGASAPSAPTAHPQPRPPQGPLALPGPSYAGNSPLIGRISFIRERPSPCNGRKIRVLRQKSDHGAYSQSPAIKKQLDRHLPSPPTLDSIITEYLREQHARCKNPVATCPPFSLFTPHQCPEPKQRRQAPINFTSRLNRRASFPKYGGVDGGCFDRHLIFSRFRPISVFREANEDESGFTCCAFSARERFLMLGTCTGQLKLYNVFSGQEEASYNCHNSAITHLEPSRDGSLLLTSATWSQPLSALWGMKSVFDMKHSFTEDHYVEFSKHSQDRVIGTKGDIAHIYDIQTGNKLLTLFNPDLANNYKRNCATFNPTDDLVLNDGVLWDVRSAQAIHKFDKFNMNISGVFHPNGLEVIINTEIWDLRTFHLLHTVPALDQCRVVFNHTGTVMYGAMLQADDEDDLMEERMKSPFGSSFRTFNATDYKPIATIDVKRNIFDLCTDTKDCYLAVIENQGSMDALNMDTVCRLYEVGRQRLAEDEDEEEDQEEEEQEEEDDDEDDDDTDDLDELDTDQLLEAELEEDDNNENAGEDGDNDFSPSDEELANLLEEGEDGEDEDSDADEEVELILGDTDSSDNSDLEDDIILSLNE
# UniProt Q9Y5L2: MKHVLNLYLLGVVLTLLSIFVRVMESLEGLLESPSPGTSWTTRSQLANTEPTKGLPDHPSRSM
# UniProt Q9Y6V7: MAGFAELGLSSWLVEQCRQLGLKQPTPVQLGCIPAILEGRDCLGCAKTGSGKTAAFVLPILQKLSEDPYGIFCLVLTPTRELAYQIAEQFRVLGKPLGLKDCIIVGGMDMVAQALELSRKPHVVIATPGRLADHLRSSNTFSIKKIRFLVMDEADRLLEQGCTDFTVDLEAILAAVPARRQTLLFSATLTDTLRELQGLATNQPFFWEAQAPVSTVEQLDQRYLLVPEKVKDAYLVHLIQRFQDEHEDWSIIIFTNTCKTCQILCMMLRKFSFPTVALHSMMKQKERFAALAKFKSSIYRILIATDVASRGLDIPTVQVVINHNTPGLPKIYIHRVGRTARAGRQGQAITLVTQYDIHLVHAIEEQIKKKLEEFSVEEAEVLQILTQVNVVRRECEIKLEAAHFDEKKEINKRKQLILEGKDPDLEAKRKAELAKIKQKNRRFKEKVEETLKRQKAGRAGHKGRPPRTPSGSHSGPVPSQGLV
# UniProt Q9Y462: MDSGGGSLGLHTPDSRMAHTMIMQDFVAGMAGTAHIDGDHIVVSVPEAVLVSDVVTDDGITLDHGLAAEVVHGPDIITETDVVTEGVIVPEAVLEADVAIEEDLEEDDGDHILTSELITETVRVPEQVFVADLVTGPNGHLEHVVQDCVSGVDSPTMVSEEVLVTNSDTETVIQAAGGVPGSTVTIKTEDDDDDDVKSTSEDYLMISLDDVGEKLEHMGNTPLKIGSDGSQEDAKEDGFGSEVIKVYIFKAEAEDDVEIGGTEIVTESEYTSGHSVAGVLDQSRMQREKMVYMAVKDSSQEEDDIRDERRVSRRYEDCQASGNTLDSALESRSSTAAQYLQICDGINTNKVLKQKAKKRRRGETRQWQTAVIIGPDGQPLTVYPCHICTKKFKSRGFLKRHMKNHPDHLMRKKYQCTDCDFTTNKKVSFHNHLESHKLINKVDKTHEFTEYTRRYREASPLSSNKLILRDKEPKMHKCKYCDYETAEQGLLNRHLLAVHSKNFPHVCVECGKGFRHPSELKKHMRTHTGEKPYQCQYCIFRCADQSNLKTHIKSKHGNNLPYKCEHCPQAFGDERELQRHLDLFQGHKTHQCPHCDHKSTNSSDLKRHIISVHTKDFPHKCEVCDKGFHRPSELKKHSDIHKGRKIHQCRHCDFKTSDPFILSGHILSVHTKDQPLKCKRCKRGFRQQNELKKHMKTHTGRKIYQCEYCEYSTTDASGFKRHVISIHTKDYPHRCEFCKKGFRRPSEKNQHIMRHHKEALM
# UniProt Q9Y5A9: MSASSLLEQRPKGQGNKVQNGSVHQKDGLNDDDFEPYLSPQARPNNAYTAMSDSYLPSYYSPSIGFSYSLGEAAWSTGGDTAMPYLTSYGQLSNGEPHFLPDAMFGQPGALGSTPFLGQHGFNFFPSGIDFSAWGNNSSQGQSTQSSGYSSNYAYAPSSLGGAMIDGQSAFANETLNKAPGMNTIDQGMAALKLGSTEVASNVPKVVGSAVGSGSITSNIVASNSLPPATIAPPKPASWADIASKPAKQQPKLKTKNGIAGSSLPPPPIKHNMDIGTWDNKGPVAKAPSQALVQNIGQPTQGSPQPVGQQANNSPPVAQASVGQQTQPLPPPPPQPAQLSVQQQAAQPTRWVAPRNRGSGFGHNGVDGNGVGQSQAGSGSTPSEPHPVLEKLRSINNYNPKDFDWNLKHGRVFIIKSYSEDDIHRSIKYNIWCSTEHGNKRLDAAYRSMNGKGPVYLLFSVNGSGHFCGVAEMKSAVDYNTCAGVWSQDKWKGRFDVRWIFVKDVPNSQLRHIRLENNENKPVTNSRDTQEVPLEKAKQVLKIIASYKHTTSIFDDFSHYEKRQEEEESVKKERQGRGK
# UniProt Q9Y5J1: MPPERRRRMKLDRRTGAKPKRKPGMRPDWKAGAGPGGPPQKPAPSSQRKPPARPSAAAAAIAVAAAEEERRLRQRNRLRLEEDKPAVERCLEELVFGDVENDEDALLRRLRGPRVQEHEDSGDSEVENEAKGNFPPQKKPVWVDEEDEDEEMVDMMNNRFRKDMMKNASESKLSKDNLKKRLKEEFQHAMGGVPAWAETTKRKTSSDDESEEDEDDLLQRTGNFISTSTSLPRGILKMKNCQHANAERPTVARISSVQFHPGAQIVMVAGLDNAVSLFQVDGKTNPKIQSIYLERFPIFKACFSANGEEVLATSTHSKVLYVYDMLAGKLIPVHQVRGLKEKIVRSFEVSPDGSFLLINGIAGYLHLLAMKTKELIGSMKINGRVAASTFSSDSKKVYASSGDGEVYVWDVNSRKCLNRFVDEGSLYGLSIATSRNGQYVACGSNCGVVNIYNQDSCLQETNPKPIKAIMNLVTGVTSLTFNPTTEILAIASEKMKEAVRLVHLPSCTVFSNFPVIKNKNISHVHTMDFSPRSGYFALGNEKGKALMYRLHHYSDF
# UniProt Q9Y6M1: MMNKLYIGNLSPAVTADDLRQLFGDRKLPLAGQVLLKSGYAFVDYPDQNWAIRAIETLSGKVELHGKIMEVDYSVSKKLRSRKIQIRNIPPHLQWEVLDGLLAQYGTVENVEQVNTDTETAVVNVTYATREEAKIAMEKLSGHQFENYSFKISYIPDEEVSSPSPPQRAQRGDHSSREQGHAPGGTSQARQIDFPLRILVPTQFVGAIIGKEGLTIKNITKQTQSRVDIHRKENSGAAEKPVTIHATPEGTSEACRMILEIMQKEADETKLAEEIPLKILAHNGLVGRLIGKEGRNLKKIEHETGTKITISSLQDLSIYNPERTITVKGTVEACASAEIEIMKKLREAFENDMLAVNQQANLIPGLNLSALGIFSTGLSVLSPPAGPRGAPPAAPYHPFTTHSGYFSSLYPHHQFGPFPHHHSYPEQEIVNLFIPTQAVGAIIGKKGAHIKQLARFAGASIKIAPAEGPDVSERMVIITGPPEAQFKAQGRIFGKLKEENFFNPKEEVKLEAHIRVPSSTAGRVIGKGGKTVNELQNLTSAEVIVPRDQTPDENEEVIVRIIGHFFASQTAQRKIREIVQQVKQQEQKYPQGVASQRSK
# Some of the results follow. Most values lie at the level of the controls, where differences are scatter.
# Compound: CN[C@@H]1C[C@H]2O[C@@](C)([C@@H]1OC)n1c3ccccc3c3c4c(c5c6ccccc6n2c5c31)C(=O)NC4 [staurosporine]
# Assay: log2 fold change of tryptic peptide abundance, ligand vs vehicle (limited proteolysis) (log2 ratio); higher = more trypsin-susceptible (destabilized)
# Settings: ligand concentration: 20 uM; sample: K562 cleared lysate; digestion: 4 min, 22 C (HT-PELSA RT4min, Orbitrap Astral)
row,Target,log2 fold change
1,"SESN1 (peptide sequence: TVVCTPEKVTK, peptide start residue: 439) (UniProt Q9Y6P5)",0.531
2,"NUBP2 (peptide sequence: ELTFCRK, peptide start residue: 173) (UniProt Q9Y5Y2)",-0.188
3,"MRPS18B (peptide sequence: RLYQGHLQEESGPPPESMPK, peptide start residue: 218) (UniProt Q9Y676)",-0.52
4,"ASB3 (peptide sequence: ILDLLIPLTNR, peptide start residue: 262) (UniProt Q9Y575)",-0.276
5,"UniProt Q9Y4B6 (peptide sequence: RKLPQNPK, peptide start residue: 709)",0.412
6,"UniProt Q9Y5L2 (peptide sequence: SQLANTEPTK, peptide start residue: 44)",-0.314
7,"DDX49 (peptide sequence: QLILEGKDPDLEAKR, peptide start residue: 415) (UniProt Q9Y6V7)",-0.134
8,"UniProt Q9Y462 (peptide sequence: VDKTHEFTEYTR, peptide start residue: 442)",-0.867
9,"YTHDF2 (peptide sequence: DGLNDDDFEPYLSPQAR, peptide start residue: 27) (UniProt Q9Y5A9)",-0.329
10,"UTP18 (peptide sequence: VAASTFSSDSK, peptide start residue: 385) (UniProt Q9Y5J1)",0.688
11,"IGF2BP2 (peptide sequence: MVIITGPPEAQFK, peptide start residue: 453) (UniProt Q9Y6M1)",-0.161

# Quoted from the listing:
# Value for DDX49 (peptide sequence: QLILEGKDPDLEAKR, peptide start residue: 415) (UniProt Q9Y6V7) under log2 fold change: -0.134
# Value for ASB3 (peptide sequence: ILDLLIPLTNR, peptide start residue: 262) (UniProt Q9Y575) under log2 fold change: -0.276
